Consider one substance from PMC11727142.

The chains behind the UniProt entries cited, without tags or fusion partners. Residues count along the entry.
UniProt Q16610, residues 20-540: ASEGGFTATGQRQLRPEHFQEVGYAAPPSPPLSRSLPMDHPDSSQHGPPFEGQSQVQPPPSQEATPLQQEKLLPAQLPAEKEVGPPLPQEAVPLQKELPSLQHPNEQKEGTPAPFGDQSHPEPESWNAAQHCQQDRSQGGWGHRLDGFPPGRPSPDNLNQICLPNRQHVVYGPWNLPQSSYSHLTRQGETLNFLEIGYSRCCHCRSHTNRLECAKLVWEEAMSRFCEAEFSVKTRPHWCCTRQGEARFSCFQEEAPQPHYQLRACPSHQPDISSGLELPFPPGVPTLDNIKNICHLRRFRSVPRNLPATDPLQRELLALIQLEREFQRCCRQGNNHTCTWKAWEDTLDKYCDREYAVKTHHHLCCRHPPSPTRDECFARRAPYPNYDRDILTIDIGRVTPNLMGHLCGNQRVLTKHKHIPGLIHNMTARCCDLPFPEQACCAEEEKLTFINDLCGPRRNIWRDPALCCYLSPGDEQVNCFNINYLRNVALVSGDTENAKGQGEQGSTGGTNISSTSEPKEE
UniProt P06733: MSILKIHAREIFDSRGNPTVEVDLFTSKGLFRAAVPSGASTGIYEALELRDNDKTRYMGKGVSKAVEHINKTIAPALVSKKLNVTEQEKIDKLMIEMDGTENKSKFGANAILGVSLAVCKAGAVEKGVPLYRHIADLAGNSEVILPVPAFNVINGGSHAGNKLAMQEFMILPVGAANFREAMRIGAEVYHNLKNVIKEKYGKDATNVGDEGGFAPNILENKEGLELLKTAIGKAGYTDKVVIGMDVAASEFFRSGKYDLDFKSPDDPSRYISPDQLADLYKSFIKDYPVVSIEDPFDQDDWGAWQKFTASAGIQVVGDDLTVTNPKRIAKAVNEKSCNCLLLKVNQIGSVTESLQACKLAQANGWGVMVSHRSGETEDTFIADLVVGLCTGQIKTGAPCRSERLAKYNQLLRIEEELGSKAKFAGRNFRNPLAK

In the assay the target is Recombinant human ECM1 tagged with Flag (extracellular matrix protein 1) (human) (UniProt Q16610). Description: affinity purification with mass spectrometry; ECM1-Flag added to C4-2B cells for 48 h; membrane proteins isolated; anti-Flag or anti-IgG magnetic beads overnight at 4 °C; six washes with RIPA buffer; MS; only the target purified.

These are yes or no findings as the source states them, for the method shown. Binding seen in cells or lysates may run through a third protein. A yes stands for co-enrichment or nearness to the bait. Other partners may have been found.

Take “Enolase 1 (ENO1), endogenous in C4-2B cells (from UniProt P06733 1-434) (receptor)”: the binding result is listed as “binds”.
